PubChem BioAssay AID652259, Drosophila RNAi Screening Center | 2013
In all, the deposit lists about 22,000 reagents; shown is a random part of those with a known target gene and a result. In the full data, 233 (1.1%) are marked active. 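Light values are raw, unnormalised plate reads; the ratio scores behind the reporter calls were not deposited.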 Entries without a mark were called inactive. Reagents against one gene are numbered here. A plus sign joins genes that one reagent is predicted to hit. Not stated in the record: the amount of reagent, the time to read-out, the dose of the treatment.

Test: 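Knock-downs that push a Wingless-driven reporter up or down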 (primary screen)
Cell system: Drosophila clone 8 imaginal disc epithelial cells
Reagent: long dsRNA against Drosophila genes
Treatment: pathway stimulated by co-transfected Wingless expression plasmid
Detection: 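Dual luciferase reads per well after Wingless plasmid stimulation: reporter firefly light and Renilla control light; activity is firefly divided by Renilla, a ratio not deposited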
Direction: firefly reporter light: higher = more Wg reporter light, before normalisation; Renilla control light: higher = more transfected or surviving cells
Active means: 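a knock-down is a candidate when at least two out of four statistical tests show it departing from its plate mean; one test alone signals a weak candidate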
Calls: active = candidate regulator (raises or lowers reporter); inactive = not a candidate

trpl (transient receptor potential-like) #1
- firefly reporter light, replicate 1: 3185
- firefly reporter light, replicate 2: 10128
- Renilla control light, replicate 1: 1285
- Renilla control light, replicate 2: 4640

trpl (transient receptor potential-like) #2
- firefly reporter light, replicate 1: 4950
- firefly reporter light, replicate 2: 9723
- Renilla control light, replicate 1: 1639
- Renilla control light, replicate 2: 5786

CG9932
- reporter change call, replicate 1: Wg reporter activity lowered
- firefly reporter light, replicate 1: 1178
- firefly reporter light, replicate 2: 3528
- Renilla control light, replicate 1: 994
- Renilla control light, replicate 2: 1857

CR31958 (pseudo) #1
- firefly reporter light, replicate 1: 4296
- firefly reporter light, replicate 2: 10144
- Renilla control light, replicate 1: 1224
- Renilla control light, replicate 2: 3986

CR31958 (pseudo) #2
- firefly reporter light, replicate 1: 4.13e5
- firefly reporter light, replicate 2: 3.48e5
- Renilla control light, replicate 1: 1.57e5
- Renilla control light, replicate 2: 1.53e5

baz (bazooka)
- firefly reporter light, replicate 1: 21138
- Renilla control light, replicate 1: 7498

CG5402
- reporter change call, replicate 1: Wg reporter activity lowered (active)
- firefly reporter light, replicate 1: 2438
- Renilla control light, replicate 1: 2929

CG6689
- firefly reporter light, replicate 1: 4845
- Renilla control light, replicate 1: 1523

CG13229
- firefly reporter light, replicate 1: 5146
- Renilla control light, replicate 1: 3301

SP (Sex Peptide)
- firefly reporter light, replicate 1: 7489
- Renilla control light, replicate 1: 2586

CG42449
- firefly reporter light, replicate 1: 20412
- Renilla control light, replicate 1: 7282

CheB42a (Chemosensory protein B 42a)
- firefly reporter light, replicate 1: 8.39e5
- firefly reporter light, replicate 2: 8.12e5
- Renilla control light, replicate 1: 4.07e5
- Renilla control light, replicate 2: 3.89e5

fusl (fuseless)
- firefly reporter light, replicate 1: 5856
- Renilla control light, replicate 1: 2886

CG7715
- firefly reporter light, replicate 1: 16356
- Renilla control light, replicate 1: 3668

Rpn9 (Regulatory particle non-ATPase 9)
- firefly reporter light, replicate 1: 2549
- firefly reporter light, replicate 2: 4421
- Renilla control light, replicate 1: 659
- Renilla control light, replicate 2: 1026

CG5746
- firefly reporter light, replicate 1: 3159
- firefly reporter light, replicate 2: 6507
- Renilla control light, replicate 1: 1488
- Renilla control light, replicate 2: 2032

Nepl7 (Neprilysin-like 7)
- firefly reporter light, replicate 1: 3108
- firefly reporter light, replicate 2: 9232
- Renilla control light, replicate 1: 1536
- Renilla control light, replicate 2: 4070

CAH1 + Adat1
- firefly reporter light, replicate 1: 11641
- Renilla control light, replicate 1: 3964

CG6023
- firefly reporter light, replicate 1: 1384
- firefly reporter light, replicate 2: 4269
- Renilla control light, replicate 1: 823
- Renilla control light, replicate 2: 2069

CG10814
- firefly reporter light, replicate 1: 9360
- Renilla control light, replicate 1: 4037

RpL30 (Ribosomal protein L30)
- firefly reporter light, replicate 1: 3237
- firefly reporter light, replicate 2: 8228
- Renilla control light, replicate 1: 417
- Renilla control light, replicate 2: 2312

sgg (shaggy) #1
- firefly reporter light, replicate 1: 4916
- Renilla control light, replicate 1: 1708

sgg (shaggy) #2
- firefly reporter light, replicate 1: 4839
- Renilla control light, replicate 1: 1547

sgg (shaggy) #3
- firefly reporter light, replicate 1: 16556
- Renilla control light, replicate 1: 12684

Mob4 (MOB kinase activator 4)
- firefly reporter light, replicate 1: 9674
- Renilla control light, replicate 1: 1907

CG10904
- firefly reporter light, replicate 1: 3896
- firefly reporter light, replicate 2: 8275
- Renilla control light, replicate 1: 993
- Renilla control light, replicate 2: 2699

CG34277 + CG31542
- firefly reporter light, replicate 1: 4.74e5
- firefly reporter light, replicate 2: 4.68e5
- Renilla control light, replicate 1: 1.15e5
- Renilla control light, replicate 2: 96311

CG32225
- firefly reporter light, replicate 1: 2572
- Renilla control light, replicate 1: 1431

Stt3A
- firefly reporter light, replicate 1: 2551
- firefly reporter light, replicate 2: 5495
- Renilla control light, replicate 1: 866
- Renilla control light, replicate 2: 2688

Mgtor (Megator)
- firefly reporter light, replicate 1: 9090
- Renilla control light, replicate 1: 1756

PNPase (Polynucleotide phosphorylase)
- firefly reporter light, replicate 1: 3194
- firefly reporter light, replicate 2: 9584
- Renilla control light, replicate 1: 1572
- Renilla control light, replicate 2: 3338

Trax (Translin associated factor X)
- firefly reporter light, replicate 1: 4838
- Renilla control light, replicate 1: 2192
